The results in this text go back to the supplement of paper PMC12819154, “High-throughput peptide-centric local stability assay extends protein–ligand identification to membrane proteins, tissues and bacteria” (Nature Structural & Molecular Biology, 2025).

Chains of the proteins cited; added tags and fusions are not shown. Lines headed by an entry give the natural chain unless they say otherwise; changes in a name come on top.
UniProt Q92820: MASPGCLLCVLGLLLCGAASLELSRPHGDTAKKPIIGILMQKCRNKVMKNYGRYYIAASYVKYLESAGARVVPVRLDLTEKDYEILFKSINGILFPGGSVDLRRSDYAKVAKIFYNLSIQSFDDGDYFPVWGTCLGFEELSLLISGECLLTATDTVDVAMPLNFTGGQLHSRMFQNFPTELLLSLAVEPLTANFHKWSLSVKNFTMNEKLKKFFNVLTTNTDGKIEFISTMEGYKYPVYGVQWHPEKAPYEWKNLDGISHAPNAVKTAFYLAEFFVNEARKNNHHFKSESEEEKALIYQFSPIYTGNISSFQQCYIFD
UniProt Q969L4: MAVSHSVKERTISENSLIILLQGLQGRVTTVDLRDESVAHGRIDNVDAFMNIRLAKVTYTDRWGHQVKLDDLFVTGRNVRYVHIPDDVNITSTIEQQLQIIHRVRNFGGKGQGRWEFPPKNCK
UniProt Q92783: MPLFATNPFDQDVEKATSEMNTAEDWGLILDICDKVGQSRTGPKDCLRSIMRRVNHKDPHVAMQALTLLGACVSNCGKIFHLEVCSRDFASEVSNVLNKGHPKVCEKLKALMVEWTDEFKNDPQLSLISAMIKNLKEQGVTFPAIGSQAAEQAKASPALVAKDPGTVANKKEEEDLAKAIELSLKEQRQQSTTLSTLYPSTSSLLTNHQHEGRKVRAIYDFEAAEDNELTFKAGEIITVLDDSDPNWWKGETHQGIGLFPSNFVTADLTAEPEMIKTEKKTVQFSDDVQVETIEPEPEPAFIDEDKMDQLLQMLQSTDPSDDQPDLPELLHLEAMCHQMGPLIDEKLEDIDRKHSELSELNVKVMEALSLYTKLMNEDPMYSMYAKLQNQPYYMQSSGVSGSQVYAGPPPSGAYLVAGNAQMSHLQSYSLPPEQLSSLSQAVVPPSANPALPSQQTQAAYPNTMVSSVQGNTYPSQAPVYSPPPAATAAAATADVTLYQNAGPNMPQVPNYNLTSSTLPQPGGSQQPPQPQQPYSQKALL
UniProt Q96AX1: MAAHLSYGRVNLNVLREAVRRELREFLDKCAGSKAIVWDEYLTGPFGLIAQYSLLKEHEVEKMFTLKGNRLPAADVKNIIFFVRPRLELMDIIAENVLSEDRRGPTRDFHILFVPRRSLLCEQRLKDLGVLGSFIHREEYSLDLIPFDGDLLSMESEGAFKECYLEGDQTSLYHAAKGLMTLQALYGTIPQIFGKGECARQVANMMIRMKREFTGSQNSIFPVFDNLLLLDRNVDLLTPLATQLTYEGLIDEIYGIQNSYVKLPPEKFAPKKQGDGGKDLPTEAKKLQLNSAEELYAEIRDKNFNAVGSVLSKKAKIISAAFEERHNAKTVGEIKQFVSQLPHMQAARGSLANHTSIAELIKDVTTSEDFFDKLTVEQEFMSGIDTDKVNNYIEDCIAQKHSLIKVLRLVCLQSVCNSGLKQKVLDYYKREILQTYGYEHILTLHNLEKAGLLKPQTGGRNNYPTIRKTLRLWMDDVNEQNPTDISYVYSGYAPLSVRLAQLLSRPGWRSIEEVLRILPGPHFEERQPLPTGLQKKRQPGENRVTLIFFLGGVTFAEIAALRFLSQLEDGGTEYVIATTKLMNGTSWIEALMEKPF
UniProt Q92902: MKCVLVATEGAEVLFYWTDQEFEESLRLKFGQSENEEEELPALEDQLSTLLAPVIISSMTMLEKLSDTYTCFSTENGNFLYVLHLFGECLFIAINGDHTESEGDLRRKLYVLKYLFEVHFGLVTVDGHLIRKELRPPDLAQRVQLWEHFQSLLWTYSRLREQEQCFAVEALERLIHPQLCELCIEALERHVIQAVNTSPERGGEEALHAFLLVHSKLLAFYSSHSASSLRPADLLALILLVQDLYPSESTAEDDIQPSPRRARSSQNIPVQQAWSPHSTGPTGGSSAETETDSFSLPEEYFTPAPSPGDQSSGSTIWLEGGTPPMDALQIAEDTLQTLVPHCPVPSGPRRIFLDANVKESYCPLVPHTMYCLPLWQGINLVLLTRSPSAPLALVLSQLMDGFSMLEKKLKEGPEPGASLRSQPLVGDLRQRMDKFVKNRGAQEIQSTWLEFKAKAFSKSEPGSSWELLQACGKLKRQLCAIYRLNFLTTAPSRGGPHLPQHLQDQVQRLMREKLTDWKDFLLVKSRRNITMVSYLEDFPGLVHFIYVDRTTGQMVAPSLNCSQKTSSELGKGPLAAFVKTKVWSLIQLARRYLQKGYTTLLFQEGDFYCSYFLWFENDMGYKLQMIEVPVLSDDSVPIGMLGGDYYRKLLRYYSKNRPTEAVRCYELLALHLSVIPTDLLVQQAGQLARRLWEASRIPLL
UniProt Q96A33: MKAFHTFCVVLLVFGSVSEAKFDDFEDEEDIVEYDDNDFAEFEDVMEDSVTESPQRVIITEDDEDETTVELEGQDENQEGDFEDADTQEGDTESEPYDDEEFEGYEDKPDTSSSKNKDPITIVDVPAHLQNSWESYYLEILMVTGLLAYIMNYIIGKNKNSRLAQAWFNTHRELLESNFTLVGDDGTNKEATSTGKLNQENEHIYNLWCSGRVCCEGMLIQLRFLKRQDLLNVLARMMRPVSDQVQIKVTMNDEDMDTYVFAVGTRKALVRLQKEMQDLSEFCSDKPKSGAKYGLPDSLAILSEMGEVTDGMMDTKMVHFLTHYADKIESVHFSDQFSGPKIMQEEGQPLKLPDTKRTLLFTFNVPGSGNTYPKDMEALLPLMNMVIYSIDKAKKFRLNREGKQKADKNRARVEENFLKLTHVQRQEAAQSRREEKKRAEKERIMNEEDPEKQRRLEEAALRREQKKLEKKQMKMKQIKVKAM
UniProt Q96E11: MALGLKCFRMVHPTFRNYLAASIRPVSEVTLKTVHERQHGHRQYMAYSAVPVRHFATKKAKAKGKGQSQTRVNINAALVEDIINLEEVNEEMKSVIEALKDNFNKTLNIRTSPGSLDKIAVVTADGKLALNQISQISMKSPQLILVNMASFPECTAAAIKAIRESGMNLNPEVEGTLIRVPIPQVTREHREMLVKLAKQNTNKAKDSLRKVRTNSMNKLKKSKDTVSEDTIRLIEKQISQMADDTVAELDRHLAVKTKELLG
UniProt Q96BR6: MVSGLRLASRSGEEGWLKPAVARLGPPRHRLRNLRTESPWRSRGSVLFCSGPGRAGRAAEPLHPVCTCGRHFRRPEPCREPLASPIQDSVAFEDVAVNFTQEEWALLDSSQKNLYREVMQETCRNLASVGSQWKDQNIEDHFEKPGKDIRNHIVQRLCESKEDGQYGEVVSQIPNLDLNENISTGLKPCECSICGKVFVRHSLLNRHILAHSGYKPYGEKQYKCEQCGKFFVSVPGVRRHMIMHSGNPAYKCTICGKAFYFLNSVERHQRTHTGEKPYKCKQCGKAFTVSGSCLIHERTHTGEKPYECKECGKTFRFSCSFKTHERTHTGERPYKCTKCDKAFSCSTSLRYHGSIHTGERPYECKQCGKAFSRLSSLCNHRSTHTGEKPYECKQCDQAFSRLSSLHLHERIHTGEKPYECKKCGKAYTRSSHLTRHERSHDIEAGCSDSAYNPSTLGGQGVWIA
UniProt Q96BH1: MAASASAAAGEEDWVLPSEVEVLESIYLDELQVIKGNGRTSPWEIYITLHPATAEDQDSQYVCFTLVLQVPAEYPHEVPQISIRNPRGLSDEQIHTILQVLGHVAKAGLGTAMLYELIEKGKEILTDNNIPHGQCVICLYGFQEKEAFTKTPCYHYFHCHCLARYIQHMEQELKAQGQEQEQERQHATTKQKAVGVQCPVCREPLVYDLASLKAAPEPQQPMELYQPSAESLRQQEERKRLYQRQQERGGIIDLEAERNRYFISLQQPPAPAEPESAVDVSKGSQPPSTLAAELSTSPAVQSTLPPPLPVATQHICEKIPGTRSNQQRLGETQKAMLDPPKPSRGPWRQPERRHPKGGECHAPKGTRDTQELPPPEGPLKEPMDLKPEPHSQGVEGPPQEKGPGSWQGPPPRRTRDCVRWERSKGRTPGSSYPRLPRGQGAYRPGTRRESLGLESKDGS
UniProt Q96C90: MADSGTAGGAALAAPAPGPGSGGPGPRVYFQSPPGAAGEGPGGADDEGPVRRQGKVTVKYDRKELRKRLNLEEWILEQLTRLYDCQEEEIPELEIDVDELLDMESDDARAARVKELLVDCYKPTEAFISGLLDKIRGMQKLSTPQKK
UniProt Q92828: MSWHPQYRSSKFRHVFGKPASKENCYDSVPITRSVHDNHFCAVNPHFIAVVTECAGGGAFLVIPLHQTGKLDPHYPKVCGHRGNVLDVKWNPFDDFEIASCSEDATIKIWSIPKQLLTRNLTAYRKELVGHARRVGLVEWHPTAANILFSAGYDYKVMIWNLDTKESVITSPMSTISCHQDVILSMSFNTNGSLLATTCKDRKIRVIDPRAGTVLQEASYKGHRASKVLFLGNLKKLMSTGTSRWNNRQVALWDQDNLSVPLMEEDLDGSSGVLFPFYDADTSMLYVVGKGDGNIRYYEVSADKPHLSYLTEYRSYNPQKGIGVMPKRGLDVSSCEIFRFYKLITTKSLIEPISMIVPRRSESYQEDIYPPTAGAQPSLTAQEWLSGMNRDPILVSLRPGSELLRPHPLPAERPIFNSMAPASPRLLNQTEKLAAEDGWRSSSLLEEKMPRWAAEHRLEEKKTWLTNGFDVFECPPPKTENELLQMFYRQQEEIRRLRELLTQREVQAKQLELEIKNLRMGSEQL
UniProt Q96A00: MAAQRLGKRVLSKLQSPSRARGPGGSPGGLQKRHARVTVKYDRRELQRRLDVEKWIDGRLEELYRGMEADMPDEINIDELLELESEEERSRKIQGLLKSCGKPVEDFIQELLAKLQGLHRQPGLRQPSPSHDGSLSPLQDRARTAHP
UniProt Q96A72, whole entry: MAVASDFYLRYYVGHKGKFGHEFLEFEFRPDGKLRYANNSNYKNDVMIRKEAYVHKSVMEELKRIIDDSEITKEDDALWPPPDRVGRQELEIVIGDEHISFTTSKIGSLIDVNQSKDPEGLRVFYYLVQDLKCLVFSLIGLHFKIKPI
UniProt Q96DM3: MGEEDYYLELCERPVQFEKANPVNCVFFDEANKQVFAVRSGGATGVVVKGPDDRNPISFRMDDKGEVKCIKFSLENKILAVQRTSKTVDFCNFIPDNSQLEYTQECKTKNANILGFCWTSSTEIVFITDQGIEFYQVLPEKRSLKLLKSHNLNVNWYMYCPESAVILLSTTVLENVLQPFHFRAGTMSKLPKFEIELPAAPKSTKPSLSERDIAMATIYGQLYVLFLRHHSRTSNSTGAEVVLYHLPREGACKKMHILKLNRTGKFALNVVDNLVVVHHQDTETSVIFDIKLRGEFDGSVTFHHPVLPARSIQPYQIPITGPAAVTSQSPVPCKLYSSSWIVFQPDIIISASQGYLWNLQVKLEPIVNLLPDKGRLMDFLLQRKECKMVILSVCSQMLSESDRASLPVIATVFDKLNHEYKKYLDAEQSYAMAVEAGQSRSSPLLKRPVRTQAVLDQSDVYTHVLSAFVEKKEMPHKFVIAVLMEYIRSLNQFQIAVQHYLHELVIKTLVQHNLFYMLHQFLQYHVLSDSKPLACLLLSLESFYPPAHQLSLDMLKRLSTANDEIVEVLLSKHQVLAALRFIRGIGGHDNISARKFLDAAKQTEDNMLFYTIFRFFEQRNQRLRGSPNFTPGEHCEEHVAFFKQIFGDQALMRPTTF
UniProt Q969Q6: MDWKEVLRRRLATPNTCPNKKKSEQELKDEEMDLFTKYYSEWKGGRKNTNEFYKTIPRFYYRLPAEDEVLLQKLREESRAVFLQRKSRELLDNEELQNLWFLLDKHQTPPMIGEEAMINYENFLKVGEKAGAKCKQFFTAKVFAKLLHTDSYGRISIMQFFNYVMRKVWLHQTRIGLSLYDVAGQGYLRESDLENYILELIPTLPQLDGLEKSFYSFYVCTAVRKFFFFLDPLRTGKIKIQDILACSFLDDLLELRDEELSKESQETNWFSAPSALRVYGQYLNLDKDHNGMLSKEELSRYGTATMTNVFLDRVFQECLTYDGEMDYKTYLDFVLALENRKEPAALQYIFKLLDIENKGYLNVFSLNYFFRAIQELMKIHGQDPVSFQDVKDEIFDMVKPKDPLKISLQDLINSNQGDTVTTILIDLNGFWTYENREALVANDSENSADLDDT
UniProt Q96D46: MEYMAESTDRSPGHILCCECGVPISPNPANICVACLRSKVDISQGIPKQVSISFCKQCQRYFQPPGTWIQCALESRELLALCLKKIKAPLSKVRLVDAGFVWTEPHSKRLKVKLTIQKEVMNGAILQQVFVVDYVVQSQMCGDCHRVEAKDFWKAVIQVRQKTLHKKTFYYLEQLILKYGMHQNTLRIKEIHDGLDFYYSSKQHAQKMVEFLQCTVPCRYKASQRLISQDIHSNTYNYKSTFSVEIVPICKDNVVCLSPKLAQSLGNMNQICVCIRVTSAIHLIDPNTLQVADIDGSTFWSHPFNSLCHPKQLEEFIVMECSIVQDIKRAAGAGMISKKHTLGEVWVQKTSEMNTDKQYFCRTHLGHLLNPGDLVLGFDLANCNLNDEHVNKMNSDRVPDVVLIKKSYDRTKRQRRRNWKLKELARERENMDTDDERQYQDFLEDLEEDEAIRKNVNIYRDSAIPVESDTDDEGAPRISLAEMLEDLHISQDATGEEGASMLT

This is one part of the list. Small differences around the control level are noise.

Compound in the assay: Cc1nc(Nc2ncc(C(=O)Nc3c(C)cccc3Cl)s2)cc(N2CCN(CCO)CC2)n1 [dasatinib]
The experiment in a line: log2 fold change of tryptic peptide abundance, ligand vs vehicle (limited proteolysis) (log2 ratio); higher = more trypsin-susceptible (destabilized). To be noted: ligand concentration: 5 uM; sample: K562 cleared lysate.
As for “KIAA1191 (peptide sequence: GAQKPSPLELIR, peptide start residue: 246) (UniProt Q96A73)”, the log2 fold change is -0.23.
“NSMAF (peptide sequence: KKQQEQQLQLYSK, peptide start residue: 6) (UniProt Q92636)”: the log2 fold change was determined as 0.501.
With “GGH (peptide sequence: NLDGISHAPNAVK, peptide start residue: 254) (UniProt Q92820)” the figure was 0.225; with “LSM10 (peptide sequence: DESVAHGR, peptide start residue: 35) (UniProt Q969L4)”, 0.925; with “MOCOS (peptide sequence: HLGISNEMVR, peptide start residue: 432) (UniProt Q96EN8)”, 0.151.
In the case of “UniProt Q96BV0 (peptide sequence: THSRPATHSCPECER, peptide start residue: 184)”, the log2 fold change came out at 0.55.
With “STAM (peptide sequence: ASPALVAKDPGTVANKK, peptide start residue: 155) (UniProt Q92783)”, the log2 fold change was -0.408.
“VPS33A (peptide sequence: VLDYYKR, peptide start residue: 424) (UniProt Q96AX1)”: the log2 fold change was 0.171.
To “GTF2H4 (peptide sequence: LYGHPATCLAVFR, peptide start residue: 34) (UniProt Q92759)” belongs -0.543; to “HPS1 (peptide sequence: EKLTDWKDFLLVK, peptide start residue: 512) (UniProt Q92902)”, -0.4.
With “CCDC47 (peptide sequence: IMNEEDPEKQR, peptide start residue: 444) (UniProt Q96A33)” the figure was 0.481.
Consider “ATG2B (peptide sequence: LSPSWNPK, peptide start residue: 254) (UniProt Q96BY7)”, for which the log2 fold change is -0.32.
With “MRRF (peptide sequence: VPIPQVTR, peptide start residue: 180) (UniProt Q96E11)” the figure was 0.288; with “SYAP1 (peptide sequence: KITESVAETAQTIKK, peptide start residue: 71) (UniProt Q96A49)”, -0.092.
With “ZNF669 (peptide sequence: EVMQETCR, peptide start residue: 117) (UniProt Q96BR6)”, the log2 fold change was 0.286.
On to “UniProt Q96EY4 (peptide sequence: KICANDAIPK, peptide start residue: 160)”, for which the log2 fold change was 0.134.
Take “MRPS24 (peptide sequence: KGWLSLHTGNLDGEDHAAER, peptide start residue: 66) (UniProt Q96EL2)”: the log2 fold change is -0.543.
For “RNF25 (peptide sequence: EPLVYDLASLK, peptide start residue: 203) (UniProt Q96BH1)”, the log2 fold change was -0.491.
Regarding “PPP1R14B (peptide sequence: VYFQSPPGAAGEGPGGADDEGPVRR, peptide start residue: 28) (UniProt Q96C90)”, the log2 fold change is -0.0568.
Consider “CORO2A (peptide sequence: QLELEIK, peptide start residue: 510) (UniProt Q92828)”, for which the log2 fold change was found to be 0.133.
Turning to “RPE (peptide sequence: NVCSEAAQK, peptide start residue: 215) (UniProt Q96AT9)”, the log2 fold change came out at 0.284.
As for “APBB2 (peptide sequence: VRPPPPPADSVTR, peptide start residue: 719) (UniProt Q92870)”, the log2 fold change worked out at 0.271.
On to “CCDC51 (peptide sequence: TAYLRAEDSER, peptide start residue: 166) (UniProt Q96ER9)”, for which the log2 fold change was 0.15.
As to “NRBF2 (peptide sequence: KAAAYLSEAMK, peptide start residue: 36) (UniProt Q96F24)”, the log2 fold change came out at 0.283.
Turning to “PPP1R14A (peptide sequence: ARGPGGSPGGLQKR, peptide start residue: 20) (UniProt Q96A00)”, the log2 fold change is -0.115.
“PYCR2 (peptide sequence: GFTAAGILSAHK, peptide start residue: 18) (UniProt Q96C36)”: the log2 fold change is -0.0698.
Regarding “UniProt Q96CS2 (peptide sequence: AKSEEFR, peptide start residue: 187)”, the log2 fold change is -0.268.
For the target “ISG20 (peptide sequence: SIQNSLLGHSSVEDAR, peptide start residue: 141) (UniProt Q96AZ6)”, the log2 fold change is 0.614.
As to “RAD54L (peptide sequence: ELTSIVNR, peptide start residue: 383) (UniProt Q92698)”, the log2 fold change is -0.543.
Turning to “WBP2 (peptide sequence: KGTVYLTPYR, peptide start residue: 47) (UniProt Q969T9)”, the log2 fold change is -0.286.
With “PRCC (peptide sequence: KHQITYLIHQAK, peptide start residue: 454) (UniProt Q92733)” the figure was -0.131.
Take “MAGOHB (peptide sequence: FGHEFLEFEFRPDGK, peptide start residue: 17) (UniProt Q96A72)”: the log2 fold change stood at 0.332.
With “UniProt Q96DM3 (peptide sequence: SGGATGVVVKGPDDRNPISFR, peptide start residue: 40)”, the log2 fold change amounted to 0.313.
In the case of “PPP2R3C (peptide sequence: KNTNEFYK, peptide start residue: 47) (UniProt Q969Q6)”, the log2 fold change amounted to 1.49.
As for “HDAC2 (peptide sequence: ARIEEDKK, peptide start residue: 445) (UniProt Q92769)”, the log2 fold change is -0.122.
To “UniProt Q92879 (peptide sequence: MFVGQVPR, peptide start residue: 18)” belongs -0.148; to “NMD3 (peptide sequence: KNVNIYR, peptide start residue: 454) (UniProt Q96D46)”, -0.363.
